Results: PubChem BioAssay AID540276 (National Center for Advancing Translational Sciences (NCATS), 2011)
Out of some 300,000 compounds screened, about 5,400 (1.8%) were called active. Inconclusive means that the source gave no clear call. Such entries were picked first, then a sample of the others. The call rests on the fitted dose curve; tested in HEK293 cells. A potency beside an inconclusive call is a rough fit, not a confirmed value.

Test: qHTS for inhibitors of binding or entry into cells for Marburg Virus
Conditions: Marburg virus pseudotyped entry inhibition, cell reporter; series mostly up to 37.8 µM
Potency means the concentration at half of the fitted maximal effect.

Row | Structure (SMILES) | Potency
1 | O=C(COC(=O)CC1CC2CCC1C2)Nc1ccccc1Cl (stereo not given) | inconclusive: 35.5 µM [activator, single point]
2 | Cc1ccc(NC(=O)C2Cc3ccccc3C(=O)O2)cc1 (stereo not given) | inconclusive: 2.82 µM [activator, partial curve, poor fit]
3 | C=C1C(=O)C=C2CN(C(=O)c3ccccc3)[C@@](Cc3ccc(F)cc3)(C(=O)OC)[C@@H]12 | inconclusive: 10.3 µM [inhibitor, partial curve, poor fit]
4 | C(=N\Nc1nc2ccccc2s1)/c1ccc2c(c1)OCO2 | inconclusive: 35.5 µM [inhibitor, single point]
5 | CCN(CC)C(=O)CN(c1cc2c(cc1OC)oc1ccccc12)S(=O)(=O)c1ccc(C)cc1 | inconclusive: 15.8 µM [activator, partial curve, poor fit]
6 | CC(C1CC1)N(Cc1ccccc1)C(=S)Nc1ccccc1Cl (stereo not given) | inconclusive: 35.5 µM [inhibitor, single point]
7 | O=C1C=CC(=O)N1Nc1ccc(Br)cc1 | inactive
8 | CCN1CCN(CCCNC(=O)C2c3ccccc3C(=O)N(c3ccc(OC)cc3)C2c2ccc(OC)cc2)CC1 (stereo not given) | inconclusive: 17.8 µM [inhibitor, partial curve, poor fit]
9 | O=S(=O)(c1ccc(Cl)s1)N1CCN(C/C=C/c2ccccc2)CC1 | inconclusive: 18.3 µM [inhibitor, single point]
10 | COc1ccc(NC(=O)C2CCCN(c3c4c(nc5ncnn35)CCC4)C2)cc1 (stereo not given) | inconclusive: 3.26 µM [inhibitor, full curve, poor fit]
11 | COc1cc(OC)cc(C(=O)Nc2ccc(CN3CCCCC3)cc2)c1 | inactive
12 | CC(C)CCn1c(N2CCOCC2)nc2c1c(=O)n(CC(N)=O)c(=O)n2C | inconclusive: 1.12 µM [inhibitor, partial curve, poor fit]
13 | CC1(C)CC2=C(CO1)C(=S)NC(c1ccccc1)N2CC1CCCO1 (stereo not given) | inactive
14 | O=C(NCC(c1ccco1)N1CCc2ccccc2C1)c1cccc(F)c1 (stereo not given) | inconclusive: 0.794 µM [inhibitor, partial curve, poor fit]
15 | Cc1ccc(O)c(C2=Nc3ccccc3N=C(c3cccc([N+](=O)[O-])c3)C2)c1 | inactive
16 | CC(=O)c1ccc(-n2nnnc2SCC(=O)NC2CCCCC2)cc1 | inactive
17 | Cc1cc(NCCc2ccc(Cl)cc2)n2ncnc2n1 | inactive
18 | CCNC(=S)N1CCCC(C(N)=O)C1 (stereo not given) | inconclusive: 0.794 µM [activator, full curve, poor fit]
19 | CC(c1ccncn1)N(C)C(=O)c1ccc2oc(Cc3ccccc3)nc2c1 (stereo not given) | inconclusive: 0.708 µM [inhibitor, single point]
20 | CCn1cc(C(=O)NCc2cccc(F)c2)c(=O)c2cc(F)c(N3CCN(C(=O)c4ccco4)CC3)cc21 | inconclusive: 20 µM [inhibitor, partial curve, poor fit]
21 | C=CCNC(=S)NC(=O)c1oc2ccccc2c1C | inconclusive: 2.51 µM [activator, full curve, poor fit]
22 | COc1ccc(-n2nnnc2SC(C)C(=O)NCC(=O)Nc2ccc(F)c(F)c2F)cc1 (stereo not given) | inconclusive: 22.4 µM [inhibitor, single point]

Taken from above.
Potency with O=S(=O)(c1ccc(Cl)s1)N1CCN(C/C=C/c2ccccc2)CC1 reads inconclusive: 18.3 µM [inhibitor, single point]
Potency with CC1(C)CC2=C(CO1)C(=S)NC(c1ccccc1)N2CC1CCCO1 (stereo not given) reads inactive

The list goes on.

Row | Structure (SMILES) | Potency
23 | CCC(O)c1cc2c(cc1NC(=O)c1ccc(C)cc1)OCCO2 (stereo not given) | inconclusive: 2.82 µM [activator, single point]
24 | C/C(CC(C)(C)C1CCCCC1)=N\NC(N)=S | inconclusive: 13 µM [inhibitor, partial curve]
25 | COc1cc(C)ccc1S(=O)(=O)N1CCCCCC1 | inconclusive: 0.0651 µM [inhibitor, full curve, poor fit]
26 | CCOC(=O)COc1ccc2c(c1)c(C(C)=O)c(C)n2-c1ccc(OC)cc1 | inactive
27 | Cc1cc(C)c2c(CCl)cc(=O)oc2c1 | inconclusive: 2.82 µM [inhibitor, full curve, poor fit]
28 | CCN(CC)c1ccc(-c2c(C#N)c(N)nc(OC)c2C#N)cc1 | inconclusive: 20.6 µM [inhibitor, single point]
29 | Cc1cc(CNCCN(C)C)c(C)n1-c1cc(S(=O)(=O)N2CCOCC2)ccc1N1CCCC1 | inconclusive: 35.5 µM [inhibitor, single point]
30 | O=C(O)c1cc2c(N3CCC(Cc4ccccc4)CC3)ncnc2s1 | inactive
31 | CC(Nc1nc(N2CCOCC2)nc2ccccc12)c1ccccc1 (stereo not given) | inconclusive: 14.1 µM [inhibitor, single point]
32 | Cn1c(=O)c2c(nc(NCCCO)n2Cc2cccc(Br)c2)n(C)c1=O | inactive
33 | CC(C)COc1ccc(C(=O)OCCN2CCCCC2)cc1 | inconclusive: 35.5 µM [inhibitor, single point]
34 | CN(C)S(=O)(=O)c1ccc(C(=O)Nc2ccc3ncccc3c2)cc1 | inconclusive: 1.12 µM [activator, partial curve, poor fit]
35 | CC(=O)C1=C(c2ccccc2)NC(=S)NC1c1cc(Cl)c(OC(C)C)c(Cl)c1 (stereo not given) | inconclusive: 12.6 µM [inhibitor, partial curve, poor fit]
36 | C/C(=N\NC(=S)Nc1ccccc1C)C1Cc2ccccc2C(=O)O1 (stereo not given) | inconclusive: 35.5 µM [inhibitor, single point]
37 | O=C(NCC1COc2ccccc2O1)c1ccc(F)c(S(=O)(=O)N2CCOCC2)c1 (stereo not given) | inactive
38 | O=C(c1cc(-c2ccc(Cl)cc2Cl)on1)N1CCN(C(=O)c2ccco2)CC1 | inconclusive: 35.5 µM [inhibitor, single point]
39 | COc1ccc(OC)c(-c2cc(C(=O)NCCN3CCOCC3)no2)c1 | inactive
40 | CCOC(=O)c1c(NC(=O)CSc2nnnn2C)sc(C)c1-c1ccc(C)cc1 | active: 23.1 µM
41 | COc1cccc(C(=O)NCCC2=CCCCC2)c1 | inconclusive: 2.82 µM [inhibitor, full curve, poor fit]
42 | O=S(=O)(c1ccc(Cl)cc1)c1nc(-c2ccco2)oc1SCc1ccccc1F | inconclusive: 10 µM [inhibitor, partial curve, poor fit]
43 | O=C(OCC(=O)N1CCCCCC1)c1ccc(Cl)c(S(=O)(=O)N2CCCC2)c1 | inconclusive: 6.31 µM [activator, single point]
44 | CCN(CC)S(=O)(=O)c1ccc(N=Cc2c(C)c(C#N)c(=O)n(C)c2O)cc1 | inconclusive: 15.8 µM [activator, partial curve, poor fit]

Row | Structure (SMILES) | Potency
45 | CC(C)COc1ccc(C(=O)Nc2sc3c(c2C(=O)O)CC(C)(C)OC3)cc1 | active: 1.26 µM
46 | CCOC(=O)c1cnn(-c2nc3c(C)cccc3s2)c1C(F)(F)F | inconclusive: 35.5 µM [inhibitor, single point]
47 | CCOc1ccc(C2C(C(=O)Nc3cc(C)on3)c3ccccc3C(=O)N2CCN2CCOCC2)cc1 (stereo not given) | inactive
48 | CN(C(=O)CSc1nnc(COc2ccccc2)o1)c1ccccc1 | inconclusive: 35.5 µM [activator, single point]
49 | CCOC(=O)c1csc(NC(=O)c2cc(OC)c(OC)c(OC)c2)n1 | inconclusive: 35.5 µM [inhibitor, single point]
50 | CCC(=O)N1CCc2cc(S(=O)(=O)NC(Cc3ccccc3)C(=O)Nc3ccccc3C)ccc21 (stereo not given) | inactive
51 | CCOC(=O)N1CCN(C(=O)c2ccc3c(c2)sc2nc(-c4ccc(OC)cc4)cn23)CC1 | inconclusive: 35.5 µM [inhibitor, single point]
52 | CC(=O)c1cccc(NC(=O)CCCNC(=O)c2ccc(Cl)cc2)c1 | inconclusive: 4.47 µM [inhibitor, full curve, poor fit]
53 | O=C1C2CCCN2C(=O)N1CCCCN1CCN(c2ccc(F)cc2)CC1 (stereo not given) | inconclusive: 5.62 µM [activator, single point]
54 | CCCOc1ccc(C(=O)NCC(c2ccco2)N(C)C)cc1 (stereo not given) | inconclusive: 11.2 µM [activator, single point]
55 | O=C(COc1ccccc1)Nc1cccc(-c2nnc(-c3ccccc3)o2)c1 | inactive
56 | O=C(Nc1cccc(C(=O)NC2CC2)c1)c1ccc(F)c(S(=O)(=O)N2CCOCC2)c1 | inconclusive: 3.98 µM [activator, single point]
57 | Cc1c(NC(=O)C(C)(C)Oc2ccc(Cl)cc2)cccc1-c1nc2ccccc2o1 | inconclusive: 20 µM [inhibitor, single point]
58 | COc1ccc(Cn2nnnc2C(c2cc3cc(C)ccc3[nH]c2=O)N2CCN(C)CC2)cc1 (stereo not given) | inconclusive: 12.6 µM [inhibitor, single point]
59 | Cc1cc(NCCCCCCCNc2cc(C)nc3cc([N+](=O)[O-])ccc23)c2ccc([N+](=O)[O-])cc2n1 | inconclusive: 5.01 µM [inhibitor, full curve, poor fit]
60 | Cc1ccccc1-n1c(C)nnc1SCC(=O)NNC(=O)c1ccccc1 | inconclusive: 0.447 µM [activator, full curve, poor fit]
61 | O=C(c1ccc2c(c1)N(Cc1ccccc1)C(=O)c1ccccc1S2(=O)=O)N1CCc2ccccc21 | inconclusive: 35.5 µM [inhibitor, single point]
62 | COc1ccc(CN(C)C(=O)c2cc(S(=O)(=O)N3CCCCCC3)ccc2OC)cc1OC | inactive
63 | Cc1ccc(-c2nc(CN(C)Cc3ccc4nccnc4c3)c(C)o2)s1 | inactive
64 | O=C(NC(=S)N1CCN(c2ccccn2)CC1)c1ccccc1 | inactive
65 | CC(CNc1ccc([N+](=O)[O-])c2cccnc12)Nc1c([N+](=O)[O-])cc(C(F)(F)F)cc1[N+](=O)[O-] (stereo not given) | inconclusive: 11.2 µM [inhibitor, partial curve, poor fit]
